Reference: PMC7715031
No constants are given. Whether binding was seen depends on the method and setting. For some of these results: In cells and extracts the contact can be indirect. Some results given as binding are weak or reduced against the parent protein; the word gives no strength.

Chains of the proteins cited; added tags and fusions are not shown. Residues count along the entry.
UniProt Q9H7M9, residues 33-311: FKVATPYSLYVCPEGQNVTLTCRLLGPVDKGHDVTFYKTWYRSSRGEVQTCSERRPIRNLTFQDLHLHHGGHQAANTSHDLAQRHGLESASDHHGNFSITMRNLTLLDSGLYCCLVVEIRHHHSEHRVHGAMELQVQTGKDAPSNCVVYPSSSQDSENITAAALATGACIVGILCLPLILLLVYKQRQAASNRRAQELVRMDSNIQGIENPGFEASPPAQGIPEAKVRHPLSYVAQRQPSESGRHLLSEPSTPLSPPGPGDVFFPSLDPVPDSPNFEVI
UniProt Q8TDQ0, residues 22-124: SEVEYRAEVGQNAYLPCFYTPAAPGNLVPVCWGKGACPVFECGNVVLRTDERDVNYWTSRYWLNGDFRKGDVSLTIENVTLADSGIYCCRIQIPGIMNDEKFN

How the values were obtained:
[1] = target: V-domain Ig-containing suppressor of T cell activation (VISTA), from Jurkat T cells (human (endogenous in Jurkat T cells)) (UniProt Q9H7M9); assay: ELISA; VISTA from Jurkat T cell lysate captured on the plate by goat anti-VISTA antibody; medium of PMA-treated THP-1 cells applied 2 h; bound galectin-9 measured with an ELISA kit
[2] = target: V-domain Ig-containing suppressor of T cell activation (VISTA), from Jurkat T cells (human (endogenous in Jurkat T cells)) (UniProt Q9H7M9); assay: co-IP; VISTA from Jurkat T cell lysate captured on a Maxisorp ELISA plate by goat anti-VISTA antibody, blocked with 2% BSA; medium of PMA-treated THP-1 cells applied 2 h at room temperature; washed with TBST; eluted with 0.2 M glycine-HCl pH 2.0; Western blot for galectin-9
[3] = target: human Ig-like V-type domain of Tim-3 (amino acid residues 22-124) (human) (UniProt Q8TDQ0); assay: ELISA; recombinant Tim-3 or VISTA immobilised on the ELISA plate, exposed to galectin-9 for 2 h; galectin-9 detected with ELISA detection antibody; with or without pre-incubation with the corresponding neutralizing antibody; both purified
[4] = target: human Ig-like V-type domain of Tim-3 (amino acid residues 22-124) (human) (UniProt Q8TDQ0); assay: synchrotron radiation circular dichroism (SRCD) spectroscopy; equimolar mixture of VISTA-Fc (Fc spectra subtracted), galectin-9 and Tim-3; observed spectrum compared with the simulated spectrum; both purified

binding [1]	binding [2]	binding [3]	binding [4]	Substance
binds	binds			galectin-9 secreted by PMA-treated THP-1 human AML cells (from UniProt O00182 1-355) (ligand)
		binds	binds	human recombinant galectin-9 (from UniProt O00182 1-355) (ligand)
